Experimental data as given in article PMC11068012.
Results are given in words; binding and its absence hold for the method and conditions named. In cells and extracts the contact can be indirect. Some entries that bind do so weakly or less than the wild type.

Molecular target: Enhancer of Zeste [E(z)] (D. melanogaster (endogenous in larval CNS)), P42124
Assay: co-IP; third instar larval CNS protein extracts (1 mg per reaction; 25 mM Hepes, 0.1 mM EDTA, 12.5 mM MgCl2, 10% glycerol, 0.01% NP-40, 10 mM NaCl; sonicated), precipitated with anti-Ph or anti-E(z) overnight at 4°C on protein A/G beads, Western blot
Conditions: remark: other sources report otherwise

binding: binds
B1: Pleiohomeotic (Pho), Q8ST83 1-520 (protein)
chain: MAYERFGIILQSEQYDEDIGNTKVNQKMNEGNHYDLHRKNAFDRIIHSESKKGDNVINYNIHENDKIKAADNIFSSKLKMNPNMSYEMNINCFKNIGYGENQETSKVLTNSLSNNDINTEESGVVDKNSPFLTLGTTILNSNGKSRRWEQKLVHIKTMEGEFSVTMWASGISDDEYSGSDQIVGASDLLKGKEEFGIDGFTSQQNKEYQKMESKFTNAQTLEMPHPISSVQIMDHLIKERGNLSQENNISERILSKTTLSFEEPILLPDSSSIELVNETAAMTINNHRTLSNHTGNTGDLHALPSSVPFRIGLHEGQVNDCLSTISQSTHQDNTDSTGCGEMNLSEVTVSYTNDKKIACPHKGCNKHFRDSSAMRKHLHTHGPRVHVCAECGKAFVESSKLKRHQLVHTGEKPFQCTFEGCGKRFSLDFNLRTHVRIHTGDRPFVCPFDACNKKFAQSTNLKSHILTHAKAKRNTSISGKSGCSNAESNSQSEDTSANYVKVELQDSVTENHVPFVVYAD
